Consider nine molecules from PubChem BioAssay AID200 (DTP/NCI, 2004).

This assay concerns B6C3F1 mice, B16 melanoma ip, median survival T/C. Description: NCI In Vivo Anticancer Drug Screen. Data for tumor model B16 Melanoma (intraperitoneal) in B6C3F1 mice. To be noted: T/C endpoint: median survival time, higher T/C = longer survival. In short, it runs like this:
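Tumor-bearing mice received test compound; a separate group got vehicle only. Survival was then compared, with results reported as treated over control.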

Where [1] appears, read: dose: 50.0 mg/kg/injection, schedule: Q01DX009 (ip), vehicle: saline with Tween-80.
Setting [2] is: dose: 100.0 mg/kg/injection, schedule: Q01DX009 (ip), vehicle: saline with Tween-80.

The list is a part of this screen's results and no random one: it gathers tests that were run many times, whatever their T/C, doses with no T/C, and many T/C values between a quarter and a half above the control. Other doses and runs of a compound stand elsewhere. T/C gives the treated animals as a percentage of the vehicle group. Some entries give survivors of the animals treated and no T/C: the source files T/C as zero there, which appears to mark a toxic dose or a test without result, not a measured value. Some doses without a T/C left all or most animals alive at the check, yet need not have been tolerated: survival well below the control is almost never listed, so the zero probably covers shortened survival too. Survivors were counted at the toxicity check, usually on the fifth day, unless a day is given; later deaths do not show. Schedules are NCI's codes, read here as Q, the interval in days (D) or hours (H), X, the number of doses. Some entries hold several experiments; the values are given in rising order. Where survival is the endpoint, the PubChem record calls one and a half times the control and up active, and a quarter to a half above the control has no call in these data; cut-offs in other NCI protocols can differ. Some T/C values carry the count of animals alive at the toxicity check (mostly the fifth day); without a count, all were alive then. Additions like (4×) count equal records among those shown. *1 amine or outer side, *2 acyl side, *3 side chain or, on linkers, in order; H or OH if unused. Where a SMILES comes first, the peptide text is derived from it. Bridges are numbered along the chain shown (N, C = ends). Roman numbers before positions name the chains, in order. [ ]: non-standard residue; d: D form. Actinocin(9to1) = Cc1c2oc3c(C)ccc(C(=O)[*:1])c3nc-2c(C(=O)[*:2])c(N)c1=O; aThr = C[C@H](O)[C@H](N)C(=O)O; NMeV = CN[C@H](C(=O)O)C(C)C; Sar = CNCC(=O)O

With `C/C(=N\NC(=S)N1CC2CCC(CC2)C1)c1nccs1`, the survivor count runs as follows: under setting [1], 7 of 10; under setting [2], 2 of 10.

On to `Cc1ncc(O)c(CO)c1O`, for which the survivor count (dose: 6.25 mg/kg/injection, schedule: Q01DX009 (ip), vehicle: saline) is on record as 10 of 10.

Turning to `CC(=O)C1=C(O)C2(O)C(=O)c3c(c(C)c4ccc(C)c(O)c4c3O)CC2C(N)C1=O` (configuration not stated), the T/C runs as follows: (dose: 7.5 mg/kg/injection, schedule: Q01DX009 (ip), vehicle: saline + alcohol) 125 % of control; (dose: 15.0 mg/kg/injection, schedule: Q01DX009 (ip), vehicle: saline + alcohol, evaluated on day 45) 139 % of control; (dose: 15.0 mg/kg/injection, schedule: Q01DX009 (ip), vehicle: saline + alcohol, evaluated on day 60) 120, 121, 134 % of control; (dose: 30.0 mg/kg/injection, schedule: Q01DX009 (ip), vehicle: saline + alcohol, evaluated on day 45) 143 % of control; (dose: 30.0 mg/kg/injection, schedule: Q01DX009 (ip), vehicle: saline + alcohol, evaluated on day 60) 116, 146, 178 % of control; (dose: 30.0 mg/kg/injection, schedule: Q01DX009 (ip), vehicle: saline) 129 % of control. The T/C (dose: 60.0 mg/kg/injection, schedule: Q01DX009 (ip), vehicle: saline + alcohol, evaluated on day 45) was 160 % of control; the T/C (dose: 60.0 mg/kg/injection, schedule: Q01DX009 (ip), vehicle: saline + alcohol, evaluated on day 60) was 121, 130 [8 of 10 alive], 134 % of control; the T/C (dose: 60.0 mg/kg/injection, schedule: Q01DX009 (ip), vehicle: saline) was 128 % of control. For the same molecule, the survivor count was 5 of 10 (dose: 120.0 mg/kg/injection, schedule: Q01DX009 (ip), vehicle: saline + alcohol); 7 of 10 (dose: 120.0 mg/kg/injection, schedule: Q01DX009 (ip), vehicle: saline); 0 of 10 (dose: 240.0 mg/kg/injection, schedule: Q01DX009 (ip), vehicle: saline).

Turning to `Cc1c2oc3c(C)ccc(C(=O)N[C@@H]4C(=O)N[C@H](C(C)C)C(=O)N5CCC[C@H]5C(=O)N(C)CC(=O)N(C)[C@@H](C(C)C)C(=O)O[C@H]4C)c3nc-2c(C(=O)N[C@@H]2C(=O)N[C@H](C(C)C)C(=O)N3CCC[C@H]3C(=O)N(C)CC(=O)N(C)[C@@H](C(C)C)C(=O)O[C@H]2C)c(N)c1=O` (I: [aThr][dV]P[Sar][NMeV] / II: [aThr][dV]P[Sar][NMeV]; ester I:1-I:C, II:1-II:C; linker I:N-II:N via Actinocin(9to1)), the T/C is, setting by setting: (dose: 12.5 micrograms/kg/injection, schedule: Q01DX009 (ip), vehicle: saline + alcohol, evaluated on day 45) 132 % of control; (dose: 12.5 micrograms/kg/injection, schedule: Q01DX009 (ip), vehicle: saline + alcohol, evaluated on day 60) 142 % of control; (dose: 12.5 micrograms/kg/injection, schedule: Q01DX009 (ip), vehicle: water) 136 % of control; (dose: 25.0 micrograms/kg/injection, schedule: Q01DX009 (ip), vehicle: saline + alcohol, evaluated on day 40) 130 % of control; (dose: 25.0 micrograms/kg/injection, schedule: Q01DX009 (ip), vehicle: saline + alcohol, evaluated on day 45) 127 % of control; (dose: 25.0 micrograms/kg/injection, schedule: Q01DX009 (ip), vehicle: saline + alcohol, evaluated on day 60) 147 % of control. Besides, the T/C (dose: 50.0 micrograms/kg/injection, schedule: Q01DX009 (ip), vehicle: saline + alcohol, evaluated on day 40) is 136 % of control and the T/C (dose: 50.0 micrograms/kg/injection, schedule: Q01DX009 (ip), vehicle: saline + alcohol, evaluated on day 45) is 137 % of control. Further, the survivor count is 10 of 10 (dose: 100.0 micrograms/kg/injection, schedule: Q01DX009 (ip), vehicle: saline + alcohol); 10 of 10 (dose: 200.0 micrograms/kg/injection, schedule: Q01DX009 (ip), vehicle: saline + alcohol); 10 of 10 (dose: 200.0 micrograms/kg/injection, schedule: Q01DX009 (ip), vehicle: water); 7 of 10 and 10 of 10 (dose: 400.0 micrograms/kg/injection, schedule: Q01DX009 (ip), vehicle: saline + alcohol); 9 of 10 (dose: 400.0 micrograms/kg/injection, schedule: Q01DX009 (ip), vehicle: water).

For `O=C(Nc1ccccc1)c1c(O)[nH]c(=S)[nH]c1=O`, the T/C is 128 % of control [9 of 10 alive] (dose: 12.0 mg/kg/injection, schedule: Q01DX009 (ip), vehicle: saline with Tween-80); 125, 130, 137, 158 % of control (dose: 25.0 mg/kg/injection, schedule: Q01DX009 (ip), vehicle: saline with Tween-80); 141, 152, 157, 169 % of control [9 of 10 alive] under setting [1]; 167 [9 of 10 alive], 183 [8 of 10 alive] (2×), 185 [9 of 10 alive], 193 % of control under setting [2]. Moreover, the survivor count by setting is: (dose: 150.0 mg/kg/injection, schedule: Q01DX009 (ip), vehicle: saline with Tween-80) 4 of 10; (dose: 200.0 mg/kg/injection, schedule: Q01DX009 (ip), vehicle: saline with Tween-80) 0 of 10, 3 of 10, 4 of 10.

Regarding `Nc1nnc[se]1`, the T/C under setting [1] is 127 % of control. Under setting [2], the survivor count was 8 of 10 and 10 of 10.

In the case of `Cc1nc2ccccc2c(C(=O)NO)[n+]1[O-]`, the survivor count by setting is: (dose: 50.0 micrograms/kg/injection, schedule: Q01DX009 (ip), vehicle: other) 10 of 10; (dose: 100.0 micrograms/kg/injection, schedule: Q01DX009 (ip), vehicle: other) 10 of 10.

Turning to `O=P(O)(NCCCl)NCCCl`, the T/C (dose: 50.0 mg/kg/injection, schedule: Q01DX001 (ip), vehicle: saline with Tween-80) was 136 % of control. Also, the survivor count (dose: 400.0 mg/kg/injection, schedule: Q01DX001 (ip), vehicle: saline with Tween-80) is 6 of 10 on day 9 and 10 of 10 on day 9.

Take `NCCCNCCSP(=O)(O)O`: the survivor count runs as follows: (dose: 400.0 mg/kg/injection, schedule: Q01DX009 (ip), vehicle: saline with Tween-80) 3 of 6; (dose: 400.0 mg/kg/injection, schedule: Q01DX009 (ip), vehicle: saline) 10 of 10.
